Experimental data as given in publication PMC8993893.
These are yes or no findings as the source states them, for the method shown. In cells and extracts the contact can be indirect. Binding calls can cover weak binding; strength is not graded here. Tags and fused reporters may be left off the sequences shown.

Target: FLAG-tagged STUB1 lacking the UBOX domain
Assay: co-IP; anti-FLAG IP of FLAG-STUB1 variants from lysates of sgSTUB1-expressing HEK293T cells co-transfected with Myc-JAK1 and V5-IFNγ-R1; NP-40 buffer (1% NP40, 150 mM NaCl, 10 mM TrisHCl, pH 7.4); 10 μg IP antibody 2 h at 4 °C, Protein A beads 2 h at 4 °C; immunoblot

B1: V5-tagged IFNγ-R1 (receptor, UniProt P15260 18-489)
chain: EMGTADLGPSSVPTPTNVTIESYNMNPIVYWEYQIMPQVPVFTVEVKNYGVKNSEWIDACINISHHYCNISDHVGDPSNSLWVRVKARVGQKESAYAKSEEFAVCRDGKIGPPKLDIRKEEKQIMIDIFHPSVFVNGDEQEVDYDPETTCYIRVYNVYVRMNGSEIQYKILTQKEDDCDEIQCQLAIPVSSLNSQYCVSAEGVLHVWGVTTEKSKEVCITIFNSSIKGSLWIPVVAALLLFLVLSLVFICFYIKKINPLKEKSIILPKSLISVVRSATLETKPESKYVSLITSYQPFSLEKEVVCEEPLSPATVPGMHTEDNPGKVEHTEELSSITEVVTTEENIPDVVPGSHLTPIERESSSPLSSNQSEPGSIALNSYHSRNCSESDHSRNGFDTDSSCLESHSSLSDSEFPPNNKGEIKTEGQELITVIKAPTSFGYDKPHVLVDLLVDDSGKESLIGYRPTEDSKEFS
binding: binds
